Assay results from PubChem BioAssay AID1671190 (National Center for Advancing Translational Sciences (NCATS), 2021).
The campaign covered roughly 580,000 compounds. About 6,100 (1.1%) were called active. The shares of active, inactive and inconclusive entries below differ from those in the screen. Calls follow the shape of the dose curve; as a rule, active = well fitted inhibition curve with a large enough effect; inconclusive = small, poorly fitted or top-dose-only effect, or another doubt; inactive = no such curve, though single readings can be large or run the other way. A potency beside an inconclusive call is a rough fit, not a confirmed value.

The chains behind the UniProt entries cited, without tags or fusion partners. Where a name states a change or a piece, a line headed by the entry shows the natural chain unless it says otherwise.
UniProt P18054: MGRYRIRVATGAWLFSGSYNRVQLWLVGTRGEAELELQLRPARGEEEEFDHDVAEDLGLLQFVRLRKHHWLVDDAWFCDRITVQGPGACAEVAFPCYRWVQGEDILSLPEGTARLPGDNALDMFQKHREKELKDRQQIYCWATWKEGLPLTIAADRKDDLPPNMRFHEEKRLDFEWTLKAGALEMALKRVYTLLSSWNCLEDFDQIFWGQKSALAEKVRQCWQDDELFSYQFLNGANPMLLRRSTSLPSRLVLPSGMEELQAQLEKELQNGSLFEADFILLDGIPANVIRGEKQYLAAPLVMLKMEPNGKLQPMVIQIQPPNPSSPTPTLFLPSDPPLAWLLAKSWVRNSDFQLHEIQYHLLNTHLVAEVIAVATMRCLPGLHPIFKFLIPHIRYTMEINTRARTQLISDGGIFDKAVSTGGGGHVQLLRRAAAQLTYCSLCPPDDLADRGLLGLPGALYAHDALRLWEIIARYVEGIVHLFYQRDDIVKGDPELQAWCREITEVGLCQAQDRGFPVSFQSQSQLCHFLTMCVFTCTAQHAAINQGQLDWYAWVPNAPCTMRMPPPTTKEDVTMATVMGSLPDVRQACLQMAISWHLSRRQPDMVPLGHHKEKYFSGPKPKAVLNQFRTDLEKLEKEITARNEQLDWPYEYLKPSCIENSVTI

Molecular target: Polyunsaturated fatty acid lipoxygenase ALOX12 (Homo sapiens) (UniProt P18054)
Test: Primary qHTS assay for inhibitors of human arachidonate 12S-lipoxygenase (ALOX12): Round 2
Conditions: purified 12hLO, xylenol orange hydroperoxide absorbance; activity change, negative = inhibition: at 108 µM (top of the series) unless noted
Method in brief: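 Purified human 12hLO (150 nM final) in 25 mM Hepes, 0.01% Triton X-100, pH 7.0 was preincubated 15 min at room temperature with compound. Then 40 uM arachidonic acid was added, 30 min. Hydroperoxide was read by Fe-XO absorbance ratio 573/405 nm.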
% is scaled to controls: 0 for no effect and ±100 for the full control effect; potency is read from the fitted curve at half-maximal effect.

Compound | activity change, negative = inhibition | Potency
Cc1cc(O)c(NC(=O)c2ccc(C)c([N+](=O)[O-])c2)cc1C | inactive: -1.24% | –
C=CCn1c(SCCCCCCC)nc2c1c(=O)n(C)c(=O)n2C | – | inconclusive: 50.1 µM [inhibitor, partial curve, poor fit]
COc1ccc(-c2cc(N3CCC(NC(=O)c4ccc(Cl)cc4)C3)n[nH]2)cc1 (configuration not stated) | – | inconclusive: 89.1 µM [inhibitor, single point]
COc1ccc(/C=N/N2CCN(c3ccccc3)CC2)cc1Br | – | inconclusive: 89.1 µM [inhibitor, single point]
CCOc1cccc(CNC(=O)c2ccc3c(c2)N(S(C)(=O)=O)CC3)c1 | – | inconclusive: 100 µM [inhibitor, single point]
CC(=O)c1ccc(N2CCN(C(=O)CCS(=O)(=O)c3ccc4c(c3)CCN4C(C)=O)CC2)cc1 | inactive: -0.409% | –
O=C1Nc2ccccc2-n2nnnc2C1N1CCN(c2ccc(F)cc2)CC1 (configuration not stated) | – | inconclusive: 89.1 µM [inhibitor, single point]
Cc1ccnc(Nc2nc(-c3ccccc3)cs2)c1 | – | inconclusive: 79.4 µM [inhibitor, single point]
CC(C)CCNC(=O)C12CN(Cc3ccccc3)CC1C(c1ccc([N+](=O)[O-])cc1)=NO2 (configuration not stated) | – | inconclusive: 35.5 µM [inhibitor, partial curve]
OC(CNCc1ccco1)c1ccccc1 (configuration not stated) | – | inconclusive: 126 µM [inhibitor, single point]
CCCCn1cnc2c1c(=O)n(CC(=O)Nc1cccc(Cl)c1)c(=O)n2CC(C)C | – | inconclusive: 112 µM [inhibitor, partial curve, poor fit]
O=C(Nc1ccc2c(c1)OCCO2)C(c1ccnc2ccccc12)N1CCC(Cc2ccccc2)CC1 (configuration not stated) | inactive: 1.11% | –
COc1ccc(OCCn2c(C3CC(=O)N(c4ccc(F)cc4)C3)nc3ccccc32)cc1 (configuration not stated) | – | inconclusive: 141 µM [inhibitor, partial curve, poor fit]
CCCCCCN1CCN(C2CN(Cc3cn(CCCCCC)nn3)S(=O)(=O)C2)CC1 (configuration not stated) | – | inconclusive: 39.8 µM [inhibitor, partial curve]
COc1cc(-c2cc3nc(NCCc4ccc(S(N)(=O)=O)cc4)ccn3n2)cc(OC)c1OC | – | inconclusive: 12.6 µM [inhibitor, partial curve, poor fit]
Cc1ccc(CNC(=O)Cn2ncc3c(C)n(Cc4ccc(Cl)cc4)c(C)c3c2=O)cc1 | – | inconclusive: 112 µM [inhibitor, single point]
CC(=O)N1CCC(N2C[C@H](O)C[C@H]2c2nc(-c3cccc(C)c3)no2)CC1 | – | inconclusive: 35.5 µM [inhibitor, full curve, poor fit]

An excerpt from above in order of length of the SMILES, ascending:
Compound | activity change, negative = inhibition | Potency
Cc1ccnc(Nc2nc(-c3ccccc3)cs2)c1 | – | inconclusive: 79.4 µM [inhibitor, single point]
C=CCn1c(SCCCCCCC)nc2c1c(=O)n(C)c(=O)n2C | – | inconclusive: 50.1 µM [inhibitor, partial curve, poor fit]
CC(=O)c1ccc(N2CCN(C(=O)CCS(=O)(=O)c3ccc4c(c3)CCN4C(C)=O)CC2)cc1 | inactive: -0.409% | –
